# Test results: patent US9724341B2 (priority 2013, dated 2017)
smiles,measurement,setting,value
"CN1CCCC1c1cccnc1.O=C(O)c1cccc(O)c1 (centres unmarked) [Nicotine m-salicylate, nicotine meta-salicylate]",mass balance of nicotine and m-salicylic acid (coated vs. emitted+residual),both entities,about 100%
same,average nicotine emitted dose,"foils coated with 200 μg nicotine, 28.3 LPM",99.5 % of coated dose
